Data from patent EP0810245A1, “Catalyst for low temperature cure of blocked isocyanates” (ELF ATOCHEM NORTH AMERICA, INC., priority 1996, dated 1997).

Experiment: Solvent resistance of cured film (double rubs)
Settings: for 100 MIBK double rubs: 30 min

Question: With CCCCCCCCCCCC(=O)[O][Sn]([CH2]CCC)([CH2]CCC)[O]C(=O)CCCCCCCCCCC [A, Dibutyl Sn Dilaurate] as the molecule, how does the “cure temperature for complete cure (>100 MEK rubs)” value read?
Answer: 140 °C

Question: What about the MEK double rubs (0.16% Sn, panels cured at 130°C, 2 mil dry film) of the same molecule?
Answer: immediately attacked

Question: And the “100 MIBK double rubs” value (Cure at 122°C)?
Answer: <10

Question: And the “100 MIBK double rubs” value (Cure at 130°C)?
Answer: <10
